We go through twelve molecules from article PMC5906681, “BRI1 and BAK1 interact with G proteins and regulate sugar-responsive growth and development in Arabidopsis” (Nature Communications, 2018).

Amino acid sequences for entries named in this document (tags omitted). Residues count along the entry.
UniProt O22476, residues 24-1196: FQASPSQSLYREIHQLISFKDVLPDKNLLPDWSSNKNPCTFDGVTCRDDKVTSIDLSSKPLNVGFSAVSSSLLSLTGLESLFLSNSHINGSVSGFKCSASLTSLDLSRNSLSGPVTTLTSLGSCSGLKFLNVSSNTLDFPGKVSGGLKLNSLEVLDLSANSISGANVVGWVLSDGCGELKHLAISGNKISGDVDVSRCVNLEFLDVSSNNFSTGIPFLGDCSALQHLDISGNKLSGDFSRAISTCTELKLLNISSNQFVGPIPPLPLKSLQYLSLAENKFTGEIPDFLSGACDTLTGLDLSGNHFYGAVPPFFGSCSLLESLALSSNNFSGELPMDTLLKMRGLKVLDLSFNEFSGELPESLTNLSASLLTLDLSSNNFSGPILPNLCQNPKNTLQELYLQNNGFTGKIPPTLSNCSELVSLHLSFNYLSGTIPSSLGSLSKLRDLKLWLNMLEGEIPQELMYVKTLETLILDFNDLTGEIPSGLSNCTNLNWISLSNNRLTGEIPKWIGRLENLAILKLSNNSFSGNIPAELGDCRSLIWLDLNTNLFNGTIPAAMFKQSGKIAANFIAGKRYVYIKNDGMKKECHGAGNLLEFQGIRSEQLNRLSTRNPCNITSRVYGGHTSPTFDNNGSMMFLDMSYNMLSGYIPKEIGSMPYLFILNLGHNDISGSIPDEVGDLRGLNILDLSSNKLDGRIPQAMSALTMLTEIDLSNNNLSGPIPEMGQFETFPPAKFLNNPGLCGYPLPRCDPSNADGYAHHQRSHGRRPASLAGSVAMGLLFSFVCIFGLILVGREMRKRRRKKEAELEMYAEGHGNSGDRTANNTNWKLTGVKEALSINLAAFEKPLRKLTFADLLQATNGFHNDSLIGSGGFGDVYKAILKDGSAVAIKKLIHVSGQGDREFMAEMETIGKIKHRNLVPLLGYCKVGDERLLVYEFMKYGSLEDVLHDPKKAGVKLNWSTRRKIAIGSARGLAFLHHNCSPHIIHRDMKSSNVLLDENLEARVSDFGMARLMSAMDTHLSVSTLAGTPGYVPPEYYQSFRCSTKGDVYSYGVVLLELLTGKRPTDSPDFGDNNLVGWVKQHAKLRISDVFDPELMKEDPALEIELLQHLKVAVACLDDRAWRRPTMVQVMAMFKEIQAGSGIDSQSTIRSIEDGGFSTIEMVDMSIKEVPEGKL

These are yes or no findings as the source states them, for the method shown. In cells and extracts the contact can be indirect. Some results given as binding are weak or reduced against the parent protein; the word gives no strength. For some assays here: Sequences can lack the tags named with a protein.

For experiment [1], the target named is T1, BAK1 (endogenous) (Arabidopsis (endogenous in wild-type seedlings)) (UniProt Q94F62).
T1 sequence: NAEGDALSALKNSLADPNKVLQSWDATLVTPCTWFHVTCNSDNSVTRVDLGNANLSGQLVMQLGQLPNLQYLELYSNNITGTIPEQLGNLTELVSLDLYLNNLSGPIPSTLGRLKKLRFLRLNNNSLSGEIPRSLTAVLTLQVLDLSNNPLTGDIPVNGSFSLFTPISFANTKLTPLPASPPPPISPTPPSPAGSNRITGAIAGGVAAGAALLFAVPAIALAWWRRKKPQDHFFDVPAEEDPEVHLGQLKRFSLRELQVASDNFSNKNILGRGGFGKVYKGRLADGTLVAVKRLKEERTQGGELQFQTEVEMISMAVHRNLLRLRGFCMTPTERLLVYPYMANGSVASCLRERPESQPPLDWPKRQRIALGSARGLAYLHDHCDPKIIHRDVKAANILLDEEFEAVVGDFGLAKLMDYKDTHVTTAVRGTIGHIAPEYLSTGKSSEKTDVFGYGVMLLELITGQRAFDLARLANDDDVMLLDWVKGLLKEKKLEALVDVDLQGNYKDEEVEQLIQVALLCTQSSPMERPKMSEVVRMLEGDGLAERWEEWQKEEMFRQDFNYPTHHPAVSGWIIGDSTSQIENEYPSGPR
Briefly: co-IP; wild-type Arabidopsis seedlings treated with glucose; anti-BAK1 antibody and Protein G Magnetic Beads; immunoblot with anti-BAK1 and anti-BRI1 (native antibodies). (Immunoblotting shows a protein as a band on a membrane.)

Another experiment deals with BRI1-nYFP (Arabidopsis) (UniProt O22476). Briefly: split reporter; BiFC; nYFP and cYFP fusions coexpressed in leaves of N. benthamiana by Agrobacterium GV3101; YFP fluorescence observed after 72 h.
Experiment [2] has as its target BRI1-GFP (Arabidopsis) (UniProt O22476). The experiment can be described thus: co-IP; total proteins of transgenic Arabidopsis seedlings, GFP-Trap-A agarose beads; immunoblot with anti-GFP and anti-Myc or anti-HA; for BRI1-GFP with BAK1-HA seedlings treated with 0-6% glucose or mannitol for 4 or 24 h; for BRI1 with AGB1 also 2% glucose.
The target of experiment [3] is T2, AGB1-Myc (Arabidopsis), P49177.
T2 chain: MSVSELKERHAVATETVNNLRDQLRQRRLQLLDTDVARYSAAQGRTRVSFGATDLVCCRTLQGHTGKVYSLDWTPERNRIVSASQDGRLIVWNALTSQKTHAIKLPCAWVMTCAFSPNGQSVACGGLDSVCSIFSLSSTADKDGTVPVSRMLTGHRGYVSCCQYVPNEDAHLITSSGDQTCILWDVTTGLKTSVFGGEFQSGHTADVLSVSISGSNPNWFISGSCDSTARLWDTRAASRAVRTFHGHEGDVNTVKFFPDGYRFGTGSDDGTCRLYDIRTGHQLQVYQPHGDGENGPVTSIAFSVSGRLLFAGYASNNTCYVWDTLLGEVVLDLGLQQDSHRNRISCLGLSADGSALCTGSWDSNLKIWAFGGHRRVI
The experiment can be described thus: co-IP; wild type, bri1-301 and bak1-4 Arabidopsis leaf protoplasts co-transformed with 35S:AGB1-Myc and 35S:GPA1-HA, dark 14 h, without or with 2% glucose for 5 h; anti-Myc-Tag mAb agarose beads; immunoblot with anti-Myc and anti-HA. The following applies: remark: other sources report otherwise.

For experiment [4], the target named is BRI1-GFP (Arabidopsis) (UniProt O22476). The experiment can be described thus: co-IP; BRI1 and BAK1 interactions induced by low glucose, after extended BRZ (Brassinazole) treatment (Supplementary Fig. 21b); set-up not shown.
For the next experiment, the target named is T3, GFP-AGG3 (Arabidopsis) (UniProt Q6AWT8).
T3 sequence: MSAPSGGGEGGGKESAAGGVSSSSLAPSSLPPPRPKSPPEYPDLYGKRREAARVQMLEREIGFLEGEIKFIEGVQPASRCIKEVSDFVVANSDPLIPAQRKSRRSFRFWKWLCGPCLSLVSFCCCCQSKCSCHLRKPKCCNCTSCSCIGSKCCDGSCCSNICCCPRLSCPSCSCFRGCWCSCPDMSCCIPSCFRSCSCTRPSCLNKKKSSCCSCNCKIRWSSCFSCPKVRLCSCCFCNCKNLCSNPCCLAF
The experiment can be described thus: co-IP; total proteins of transgenic Arabidopsis seedlings, GFP-Trap-A agarose beads; immunoblot with anti-GFP and anti-Myc or anti-HA; for BRI1-GFP with BAK1-HA seedlings treated with 0-6% glucose or mannitol for 4 or 24 h; for BRI1 with AGB1 also 2% glucose.

As to “BRI1 (endogenous) (from UniProt O22476 24-1196) (receptor)”, in experiment [1], the binding entry was “binds”.

B1: MBP-AGG2 (natural protein, Arabidopsis, UniProt Q93V47 1-100, looked up)
chain: MEAGSSNSSGQLSGRVVDTRGKHRIQAELKRLEQEARFLEEELEQLEKMDNASASCKEFLDSVDSKPDPLLPETTGPVNATWDQWFEGPKEAKRCGCSIL
notes: AGG2, Arabidopsis G protein gamma subunit 2; also called G protein gamma subunit; source: E. coli (pMAL-c2); not shown: MBP, N-terminal, kept
Regarding B1, the binding entry with BRI1-nYFP (Arabidopsis) is “binds”.

B2: AGB1-cYFP (protein, UniProt P49177 1-377)
chain: T2 chain
With B2, the binding entry with BRI1-nYFP (Arabidopsis) is “binds”.

B3: Myc-AGB1 (protein, UniProt P49177 1-377)
chain: T2 chain
For B3, in the experiment with BRI1-GFP (Arabidopsis) [2], the binding entry was “binds”.

B4: GPA1-HA, P18064 1-383 (protein)
chain: MGLLCSRSRHHTEDTDENTQAAEIERRIEQEAKAEKHIRKLLLLGAGESGKSTIFKQIKLLFQTGFDEGELKSYVPVIHANVYQTIKLLHDGTKEFAQNETDSAKYMLSSESIAIGEKLSEIGGRLDYPRLTKDIAEGIETLWKDPAIQETCARGNELQVPDCTKYLMENLKRLSDINYIPTKEDVLYARVRTTGVVEIQFSPVGENKKSGEVYRLFDVGGQRNERRKWIHLFEGVTAVIFCAAISEYDQTLFEDEQKNRMMETKELFDWVLKQPCFEKTSFMLFLNKFDIFEKKVLDVPLNVCEWFRDYQPVSSGKQEIEHAYEFVKKKFEELYYQNTAPDRVDRVFKIYRTTALDQKLVKKTFKLVDETLRRRNLLEAGLL
On to B4, for which, in experiment [3], the binding result is reported as “binds”.

B5: GPA1-cYFP (protein, UniProt P18064 1-383)
chain: B4 chain
Turning to B5, the binding entry with BRI1-nYFP (Arabidopsis) is “no binding”.

B6: AGG3-cYFP (protein, UniProt Q6AWT8 1-251)
chain: T3 sequence
With B6, the binding entry with BRI1-nYFP (Arabidopsis) was “binds”.

B7: Myc-AGG3 (protein, UniProt Q6AWT8 1-251)
chain: T3 sequence
In the case of B7, the binding entry with BRI1-GFP (Arabidopsis) [2] is recorded as “binds”.

B8: BAK1-HA (receptor, UniProt Q94F62 26-615)
chain: T1 sequence
In the case of B8, the binding entry in the experiment with BRI1-GFP (Arabidopsis) [4] is given as “binds weakly”; with GFP-AGG3 (Arabidopsis), “binds”; with BRI1-GFP (Arabidopsis) [2], “binds”.

B9: MBP-AGG1 (natural protein, Arabidopsis, UniProt Q9FDX9 1-98, looked up)
chain: MREETVVYEQEESVSHGGGKHRILAELARVEQEVAFLEKELKEVENTDIVSTVCEELLSVIEKGPDPLLPLTNGPLNLGWDRWFEGPNGGEGCRCLIL
notes: AGG1, Arabidopsis G protein gamma subunit 1; also called G protein gamma subunit; source: E. coli (pMAL-c2); not shown: MBP, N-terminal, kept
In the case of B9, in the experiment with BRI1-nYFP (Arabidopsis), the binding entry is given as “binds”.

B10: RGS1-cYFP (protein, UniProt Q8H1F2 1-459)
chain: MASGCALHGGCPSDYVAVAISVICFFVLLSRSVLPCLIHKAPRTNSSSFWIPVIQVISSFNLLFSIMMSVNLLRFRTKHWWRYCYLWAVWIEGPLGFGLLMSCRITQAFQLYFIFVKKRLPPVKSYIFLPLVLLPWIFGAAIIHATKPLNDKCHMGLQWTFPVAGLHALYVLALIAFTRAVRHVEFRFDELRDLWKGILVSATSIVIWVTAFVLNEIHEEISWLQVASRFVLLVTGGILVVVFFSISSNQPLLSQISLKKRQNFEFQRMGQALGIPDSGLLFRKEEFRPVDPNEPLDKLLLNKRFRHSFMEFADSCYAGETLHFFEEVYEHGKIPEDDSIRRIYMARHIMEKFIVAGAEMELNLSHKTRQEILTTQDLTHTDLFKNALNEVMQLIKMNLVRDYWSSIYFIKFKEEESCHEAMHKEGYSFSSPRLSSVQGSDDPFYQEHMSKSSRCSSPG
As for B10, the binding result with BRI1-nYFP (Arabidopsis) is reported as “binds”.

B11: Myc-RGS1 (protein, UniProt Q8H1F2 1-459)
chain: B10 chain
Regarding B11, in the experiment with BRI1-GFP (Arabidopsis) [2], the binding result is listed as “binds”.
